Measured values taken from doi:10.1101/2023.06.15.544950.
Results are given in words; binding and its absence hold for the method and conditions named.

Chains of the proteins cited; added tags and fusions are not shown. Residues count along the entry.
UniProt P70211, residues 26-1097: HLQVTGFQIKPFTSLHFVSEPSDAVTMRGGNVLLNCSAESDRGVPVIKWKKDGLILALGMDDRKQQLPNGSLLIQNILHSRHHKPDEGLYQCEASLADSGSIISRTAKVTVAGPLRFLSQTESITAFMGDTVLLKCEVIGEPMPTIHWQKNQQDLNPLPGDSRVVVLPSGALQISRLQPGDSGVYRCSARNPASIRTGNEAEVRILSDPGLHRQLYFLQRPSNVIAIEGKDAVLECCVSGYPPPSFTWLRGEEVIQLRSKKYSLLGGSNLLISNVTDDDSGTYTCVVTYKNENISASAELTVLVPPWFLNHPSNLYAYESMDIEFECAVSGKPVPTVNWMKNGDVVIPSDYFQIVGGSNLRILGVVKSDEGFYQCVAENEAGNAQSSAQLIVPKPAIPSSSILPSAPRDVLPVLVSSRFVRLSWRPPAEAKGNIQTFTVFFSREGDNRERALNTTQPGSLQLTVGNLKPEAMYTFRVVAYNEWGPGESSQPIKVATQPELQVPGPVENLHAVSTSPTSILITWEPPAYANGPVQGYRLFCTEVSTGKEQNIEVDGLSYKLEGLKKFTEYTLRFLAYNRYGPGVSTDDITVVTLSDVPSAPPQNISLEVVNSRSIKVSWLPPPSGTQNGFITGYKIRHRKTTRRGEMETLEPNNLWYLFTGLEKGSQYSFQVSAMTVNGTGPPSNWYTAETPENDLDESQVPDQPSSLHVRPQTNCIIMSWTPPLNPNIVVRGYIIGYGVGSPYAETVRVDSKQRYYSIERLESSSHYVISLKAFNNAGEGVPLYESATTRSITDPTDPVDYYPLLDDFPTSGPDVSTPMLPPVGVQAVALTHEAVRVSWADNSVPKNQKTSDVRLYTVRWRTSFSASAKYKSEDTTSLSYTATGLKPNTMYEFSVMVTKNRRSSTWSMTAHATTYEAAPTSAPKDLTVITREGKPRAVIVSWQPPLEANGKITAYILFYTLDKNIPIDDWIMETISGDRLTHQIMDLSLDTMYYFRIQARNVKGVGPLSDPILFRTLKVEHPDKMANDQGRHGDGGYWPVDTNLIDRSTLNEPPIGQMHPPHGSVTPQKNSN
UniProt P97798, residues 37-1136: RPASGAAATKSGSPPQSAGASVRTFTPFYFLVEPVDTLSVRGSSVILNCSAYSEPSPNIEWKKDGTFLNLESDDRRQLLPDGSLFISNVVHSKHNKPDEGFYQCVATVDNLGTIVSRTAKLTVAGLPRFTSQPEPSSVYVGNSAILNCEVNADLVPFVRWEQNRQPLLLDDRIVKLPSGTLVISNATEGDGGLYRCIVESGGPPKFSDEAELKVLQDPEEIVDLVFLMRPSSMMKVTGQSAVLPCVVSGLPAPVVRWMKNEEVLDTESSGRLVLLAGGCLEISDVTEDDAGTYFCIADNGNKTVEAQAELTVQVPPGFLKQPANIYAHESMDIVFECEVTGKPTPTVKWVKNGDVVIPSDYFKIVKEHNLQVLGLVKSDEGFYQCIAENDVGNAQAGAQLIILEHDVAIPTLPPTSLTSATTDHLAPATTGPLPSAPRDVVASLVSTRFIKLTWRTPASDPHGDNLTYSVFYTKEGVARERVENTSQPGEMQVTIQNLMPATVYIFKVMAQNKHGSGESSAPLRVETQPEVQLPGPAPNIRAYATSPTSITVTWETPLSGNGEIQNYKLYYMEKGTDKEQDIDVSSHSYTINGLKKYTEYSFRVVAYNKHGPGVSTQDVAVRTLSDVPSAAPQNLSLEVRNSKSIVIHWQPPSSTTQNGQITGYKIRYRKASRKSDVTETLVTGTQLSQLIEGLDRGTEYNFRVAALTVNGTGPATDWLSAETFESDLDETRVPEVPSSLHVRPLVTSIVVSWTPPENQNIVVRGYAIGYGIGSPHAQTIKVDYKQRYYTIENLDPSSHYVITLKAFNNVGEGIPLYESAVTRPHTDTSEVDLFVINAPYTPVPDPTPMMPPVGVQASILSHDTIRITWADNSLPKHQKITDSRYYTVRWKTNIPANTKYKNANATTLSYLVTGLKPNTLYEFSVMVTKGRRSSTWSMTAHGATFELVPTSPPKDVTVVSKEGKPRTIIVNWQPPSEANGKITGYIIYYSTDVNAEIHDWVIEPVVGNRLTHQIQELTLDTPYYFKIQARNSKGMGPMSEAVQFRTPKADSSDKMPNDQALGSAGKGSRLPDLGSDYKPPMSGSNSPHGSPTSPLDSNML

Target: T1, mWFIKKN2 (biotinylated, SPR ligand) (mouse) (UniProt Q7TQN3)
T1 sequence (chain, N-terminally biotinylated using Sulfo-NHS-SS-Biotin): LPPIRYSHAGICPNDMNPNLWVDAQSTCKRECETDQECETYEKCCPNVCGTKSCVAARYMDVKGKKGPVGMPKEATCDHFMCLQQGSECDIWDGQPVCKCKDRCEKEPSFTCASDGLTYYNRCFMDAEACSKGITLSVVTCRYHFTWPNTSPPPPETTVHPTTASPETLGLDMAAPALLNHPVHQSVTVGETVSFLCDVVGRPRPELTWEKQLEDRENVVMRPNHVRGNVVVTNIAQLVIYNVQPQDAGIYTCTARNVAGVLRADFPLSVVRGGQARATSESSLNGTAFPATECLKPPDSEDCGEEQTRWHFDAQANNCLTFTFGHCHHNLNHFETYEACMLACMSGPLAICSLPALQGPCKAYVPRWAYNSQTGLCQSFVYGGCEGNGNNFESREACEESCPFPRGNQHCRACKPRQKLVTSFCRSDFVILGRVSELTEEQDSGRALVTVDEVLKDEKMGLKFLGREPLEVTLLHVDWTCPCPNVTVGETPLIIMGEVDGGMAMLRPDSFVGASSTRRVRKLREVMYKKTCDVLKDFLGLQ
Assay: SPR

binding | Substance
no binding | mDCC ECD (SPR analyte) (from UniProt P70211 26-1097) (domain or fragment)
no binding | mNeo1 ECD (SPR analyte) (from UniProt P97798 37-1136) (domain or fragment)
